Paper PMC10817943 (Nature Communications, 2024)
These are yes or no findings as the source states them, for the method shown. Binding seen in cells or lysates may run through a third protein. A result given as binding can be weak or reduced; the word gives no strength.

Target: T1, aaLeuC, isopropylmalate isomerase subunit LeuC from primary metabolism of A. awajinensis ATCC 33919 (Actinoplanes awajinensis ATCC 33919)
T1 sequence: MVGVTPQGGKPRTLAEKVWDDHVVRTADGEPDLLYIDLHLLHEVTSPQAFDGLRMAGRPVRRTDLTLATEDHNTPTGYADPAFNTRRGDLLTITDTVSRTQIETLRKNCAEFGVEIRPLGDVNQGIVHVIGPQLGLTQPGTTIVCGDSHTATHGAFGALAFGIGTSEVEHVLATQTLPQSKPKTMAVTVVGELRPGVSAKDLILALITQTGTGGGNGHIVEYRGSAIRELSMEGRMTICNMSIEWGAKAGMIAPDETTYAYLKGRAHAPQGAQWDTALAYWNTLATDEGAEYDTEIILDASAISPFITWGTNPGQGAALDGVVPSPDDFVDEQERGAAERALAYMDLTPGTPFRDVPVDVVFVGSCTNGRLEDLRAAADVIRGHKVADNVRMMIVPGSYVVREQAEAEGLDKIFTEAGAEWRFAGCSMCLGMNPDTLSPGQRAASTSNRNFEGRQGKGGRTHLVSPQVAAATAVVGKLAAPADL
Assay: co-purification; aaLeuC and MypLN co-expressed in E. coli from pACYCDuet-1 and purified together (Histrap column, desalting)

## MypLN, N-terminal isopropylmalate isomerase subunit (LeuD) homolog domain of MypL (Actinoplanes awajinensis ATCC 33919) (domain or fragment)
  binding: binds
